Publication PMC11087123
No constants are given. Whether binding was seen depends on the method and setting. Binding seen in cells or lysates may run through a third protein. Some results given as binding are weak or reduced against the parent protein; the word gives no strength.

The chains behind the UniProt entries cited, without tags or fusion partners.
UniProt P46736: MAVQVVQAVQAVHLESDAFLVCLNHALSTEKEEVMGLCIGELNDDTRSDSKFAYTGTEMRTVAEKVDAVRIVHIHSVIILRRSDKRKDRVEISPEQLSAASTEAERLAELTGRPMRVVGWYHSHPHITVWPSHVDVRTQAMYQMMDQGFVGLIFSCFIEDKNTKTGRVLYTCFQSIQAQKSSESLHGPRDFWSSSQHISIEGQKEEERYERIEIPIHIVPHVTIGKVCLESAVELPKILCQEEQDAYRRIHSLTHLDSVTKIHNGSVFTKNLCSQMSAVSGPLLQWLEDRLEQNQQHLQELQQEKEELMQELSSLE

Target: BRCC3 (human (endogenous in J82)) (UniProt P46736)
Assay: co-IP; Co-IP between endogenous BRCC3 and USP15 in J82 cells; which protein was precipitated is not told

B1: USP15 (enzyme, UniProt Q9Y4E8 1-981)
chain: MAEGGAADLDTQRSDIATLLKTSLRKGDTWYLVDSRWFKQWKKYVGFDSWDKYQMGDQNVYPGPIDNSGLLKDGDAQSLKEHLIDELDYILLPTEGWNKLVSWYTLMEGQEPIARKVVEQGMFVKHCKVEVYLTELKLCENGNMNNVVTRRFSKADTIDTIEKEIRKIFSIPDEKETRLWNKYMSNTFEPLNKPDSTIQDAGLYQGQVLVIEQKNEDGTWPRGPSTPKSPGASNFSTLPKISPSSLSNNYNNMNNRNVKNSNYCLPSYTAYKNYDYSEPGRNNEQPGLCGLSNLGNTCFMNSAIQCLSNTPPLTEYFLNDKYQEELNFDNPLGMRGEIAKSYAELIKQMWSGKFSYVTPRAFKTQVGRFAPQFSGYQQQDCQELLAFLLDGLHEDLNRIRKKPYIQLKDADGRPDKVVAEEAWENHLKRNDSIIVDIFHGLFKSTLVCPECAKISVTFDPFCYLTLPLPMKKERTLEVYLVRMDPLTKPMQYKVVVPKIGNILDLCTALSALSGIPADKMIVTDIYNHRFHRIFAMDENLSSIMERDDIYVFEININRTEDTEHVIIPVCLREKFRHSSYTHHTGSSLFGQPFLMAVPRNNTEDKLYNLLLLRMCRYVKISTETEETEGSLHCCKDQNINGNGPNGIHEEGSPSEMETDEPDDESSQDQELPSENENSQSEDSVGGDNDSENGLCTEDTCKGQLTGHKKRLFTFQFNNLGNTDINYIKDDTRHIRFDDRQLRLDERSFLALDWDPDLKKRYFDENAAEDFEKHESVEYKPPKKPFVKLKDCIELFTTKEKLGAEDPWYCPNCKEHQQATKKLDLWSLPPVLVVHLKRFSYSRYMRDKLDTLVDFPINDLDMSEFLINPNAGPCRYNLIAVSNHYGGMGGGHYTAFAKNKDDGKWYYFDDSSVSTASEDQIVSKAAYVLFYQRQDTFSGTGFFPLDRETKGASAATGIPLESDEDSNDNDNDIENENCMHTN
binding: binds
